Results on five molecules are retold here after patent publication US20220259296A1.

Results are given in words; binding and its absence hold for the method and conditions named. Binding can be weak; no strength is given.

The target of assay [1] is cynomolgus monkey C3 (cynomolgus monkey (Macaca fascicularis)). Description: sandwich ELISA, cyno C3 captured from serum by goat antiserum. Background: ELISA stands for enzyme-linked immunosorbent assay.
For assay [2] the target is unchanged. Description: ELISA, cyno C3 captured from cynomolgus serum by coated polyclonal goat antiserum.
The target is the same in assay [3]. Description: sandwich ELISA, cyno C3 captured from serum.

B1: M0251 (VHH)
VHH: EVQLVESGGGLVQAGGSLRLSCVASGHTFGNWAMGWFRQAPGKEREFVGAIRWSVGTTNYRDSVKGRFAISRDNARNTVYLQMNRLKPEDTAVYYCAAGTPFVLARINGYDYWGQGTQVTVSS
Turning to B1, the binding entry in assay [1], in assay [2] and in assay [3] was “binds” in each case.

B2: M0123 (antibody, V domains shown)
VH: QSVKESEGRLVTPGTPLTLTCTASGFTIGSYHMSWVRQAPGKGLEWIGIIYTDGNTDYANWAKGRFTISKTSTTMDLKMTSLTAADTATYFCARRGYADYGYTFNLWGQGTLVTISS
VL: ELVLTQPASVQVNLGQTVSLTCTADTLSRNYASWYQQKPGQAPVLLIYRDTSRPSGVPDRFSGSSSGNTATLTISGAQAGDEADYYCATGDGSGSSYQFVFGGGTQLTVTG
In the case of B2, in assay [2], the binding entry is listed as “no binding (tested: about 2000 nM)”.

B3: M0228 (VHH)
VHH: EVQLVESGGGLVQAGGSLRLSCAASGRTINDYTMGWFRQAPGKDREFVSAINWRGSSTYYADSVKGRFTISRDNAKKTIYLQMNLLKPEDTAVYYCARQVSPYVELTATAAYWGQGTQVTVSS
Turning to B3, the binding result in assay [2] is “no binding (tested: about 2000 nM)”.

B4: M0122 (antibody, V domains shown)
VH: QSVKESGGRLVTPGTPLTLTCTVSGFSLYNYAMNWVRQAPGKGLEWIGIINTDGNTNYASWAKGRFTISTTSSTTVDLKITSPTTEDTATYFCPRAVGYHHHALDPWGPGTLVTVSS
VL: ELVLTQSPSVSAALGASAKLTCTLSSAHKTYTIDWYQQQQGEAPRYLMQLKSDGSYTKGTGVPDRFSGSSSGADRYLIIPSVQADDEADYYCGTDYGGGYVFGGGTQLTVTG
In the case of B4, the binding result in assay [1], in assay [2] and in assay [3] was “binds” each time.

B5: M0124 (antibody, V domains shown)
VH: QSVKESGGRLVTPGTPLTLTCTVSGIDLSRYWMNWVRQAPGKGLEWIGYITTNDKTYYANWAKGRYTISKTSSTTVDLKMTSLTTEDTATYFCARRSSGAYDIWGPGTLVTISS
VL: QPVLTQSPSASATLGASAKLTCTLSSAHKTYYIEWYQQQQGEAPRYLMQLKSDGTYTKGTGVPDRFSGSSSGADRYLIISSVQAEDEADYICGVTGGNVYVFGGGTQLTVTG
On to B5, for which the binding result in assay [1], in assay [2] and in assay [3] was “binds” throughout.
